Source: patent US20190169602

Sequences of proteins named here, by UniProt entry; tags and fusion partners are left off. A change or cut given only in a name is not applied to a line headed by its entry.
UniProt P07636: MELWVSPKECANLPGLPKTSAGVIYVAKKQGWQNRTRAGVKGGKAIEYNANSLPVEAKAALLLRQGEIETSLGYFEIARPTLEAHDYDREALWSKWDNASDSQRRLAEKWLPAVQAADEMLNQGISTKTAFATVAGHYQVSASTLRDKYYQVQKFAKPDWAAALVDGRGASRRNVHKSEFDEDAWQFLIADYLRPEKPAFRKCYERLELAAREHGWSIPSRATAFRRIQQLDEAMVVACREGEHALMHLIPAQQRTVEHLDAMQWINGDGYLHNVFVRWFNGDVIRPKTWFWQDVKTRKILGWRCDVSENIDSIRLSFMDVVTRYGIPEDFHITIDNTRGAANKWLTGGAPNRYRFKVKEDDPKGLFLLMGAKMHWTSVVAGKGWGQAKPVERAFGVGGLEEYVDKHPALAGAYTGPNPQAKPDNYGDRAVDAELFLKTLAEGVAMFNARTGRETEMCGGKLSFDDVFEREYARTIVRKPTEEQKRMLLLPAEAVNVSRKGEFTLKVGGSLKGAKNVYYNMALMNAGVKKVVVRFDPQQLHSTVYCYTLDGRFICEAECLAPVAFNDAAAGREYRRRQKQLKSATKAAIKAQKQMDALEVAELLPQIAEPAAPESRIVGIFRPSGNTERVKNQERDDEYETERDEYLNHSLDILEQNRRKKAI

Biological target: MuA transposase (UniProt P07636)
Assay: activity assay
Conditions: MuA transposome formation 30 C 2 h; transposition into pUC19 confirmed by sequencing with MuA-Tn5 TSC; 25 mM Tris pH 8.0, 10 mM MgCl2, 110 mM NaCl; purified recombinant protein

Sequence: GATCTGAAGCGGCGCACGAAAAACGCGAAAGCGTTTCACGATAAATGCGAAAACAAAACCATCGCCGAGATTTGCCCGTAGATTTCAGTGCCGGTTAACTCCTCGAGCAATTCCGCGCGTTCTTTGGGTTTGGCATTCAGGAAGGCAGCAAATTAGATGTGTATAAGAGACAG (double strand)
- activity on this sequence: active
